Laboratory results taken from patent US20050118601A1, “Enhancer sequence of the 5-aminolevulinic acid synthase gene” (priority 2002, published 2005).
At least one compound was matched to its structure with a doubt left.

Tested on: ALAS1 mRNA
Assay: ALAS1 mRNA quantification (Taqman real-time PCR) in LMH cells
Format: cell-based, chicken
Conditions: 16 h, PB 600 μM, dexamethasone 50 μM, RU-486 10 μM, rifampicin 100 μM, TCPOBOP 10 μM
Experimental: We next wanted to compare ADRES-mediated ALAS1 induction levels from reporter gene assays with stimulation of transcription in a physiological system. […] In addition, the common CYP3A inducers dexamethasone (50 μM), metyrapone (400 μM), and 10 μM mifepristone (RU-486) were employed for comparison. We were also interested in the effects of […] 5-pregnen-3β-ol-20-one-16α-carbonitrile (PCN) and rifampicin (100 μM) due to their species-specific effects on PXR activation and CYP3A induction. Messenger RNA was reverse transcribed and levels of ALAS1 cDNA were quantified using the Taqman real-time PCR quantification system as described in Materials and Methods. […] This value was chosen to represent 100% induction, against which all other values are compared.
LMH cells were plated onto 12-well plates, expanded to 70-80% surface density and incubated in serum-free media for 24 h. […] PCR was performed using the Taqman PCR core reagent kit (PE Applied Biosystems) and transcript levels quantitated with an ABI Prism 7700 sequence detection system (PE Applied Biosystems). Relative transcript levels were determined using the relative quantitation method measuring the ΔΔCt. […] Transcript levels were measured in separate tubes and GAPDH values were used for normalization of ALAS1 values.

C[C@@H]1C[C@H]2[C@@H]3CCC4=CC(=O)C=C[C@]4(C)[C@@]3(F)[C@@H](O)C[C@]2(C)[C@@]1(O)C(=O)CO [dexamethasone, Dexamethasone]
effect on ALAS1 mRNA levels: minor or no effects

CO[C@H]1/C=C/O[C@@]2(C)Oc3c(C)c(O)c4c(O)c(c(/C=N/N5CCN(C)CC5)c(O)c4c3C2=O)NC(=O)/C(C)=C\C=C\[C@H](C)[C@H](O)[C@@H](C)[C@@H](O)[C@@H](C)[C@H](OC(C)=O)[C@@H]1C [rifampicin]
effect on ALAS1 mRNA levels: minor or no effects
